# From patent US20220119375A1, “3-ARYLOXY-3-ARYL-PROPYLAMINE COMPOUND AND USES THEREOF” (Zhangzhou Pien Tze Huang Pharmaceutical Co., Ltd., priority 2018, published 2022)
# Protein sequences, listed by entry. Tags and fused reporters are not part of them.
# UniProt Q8BLA8, whole entry: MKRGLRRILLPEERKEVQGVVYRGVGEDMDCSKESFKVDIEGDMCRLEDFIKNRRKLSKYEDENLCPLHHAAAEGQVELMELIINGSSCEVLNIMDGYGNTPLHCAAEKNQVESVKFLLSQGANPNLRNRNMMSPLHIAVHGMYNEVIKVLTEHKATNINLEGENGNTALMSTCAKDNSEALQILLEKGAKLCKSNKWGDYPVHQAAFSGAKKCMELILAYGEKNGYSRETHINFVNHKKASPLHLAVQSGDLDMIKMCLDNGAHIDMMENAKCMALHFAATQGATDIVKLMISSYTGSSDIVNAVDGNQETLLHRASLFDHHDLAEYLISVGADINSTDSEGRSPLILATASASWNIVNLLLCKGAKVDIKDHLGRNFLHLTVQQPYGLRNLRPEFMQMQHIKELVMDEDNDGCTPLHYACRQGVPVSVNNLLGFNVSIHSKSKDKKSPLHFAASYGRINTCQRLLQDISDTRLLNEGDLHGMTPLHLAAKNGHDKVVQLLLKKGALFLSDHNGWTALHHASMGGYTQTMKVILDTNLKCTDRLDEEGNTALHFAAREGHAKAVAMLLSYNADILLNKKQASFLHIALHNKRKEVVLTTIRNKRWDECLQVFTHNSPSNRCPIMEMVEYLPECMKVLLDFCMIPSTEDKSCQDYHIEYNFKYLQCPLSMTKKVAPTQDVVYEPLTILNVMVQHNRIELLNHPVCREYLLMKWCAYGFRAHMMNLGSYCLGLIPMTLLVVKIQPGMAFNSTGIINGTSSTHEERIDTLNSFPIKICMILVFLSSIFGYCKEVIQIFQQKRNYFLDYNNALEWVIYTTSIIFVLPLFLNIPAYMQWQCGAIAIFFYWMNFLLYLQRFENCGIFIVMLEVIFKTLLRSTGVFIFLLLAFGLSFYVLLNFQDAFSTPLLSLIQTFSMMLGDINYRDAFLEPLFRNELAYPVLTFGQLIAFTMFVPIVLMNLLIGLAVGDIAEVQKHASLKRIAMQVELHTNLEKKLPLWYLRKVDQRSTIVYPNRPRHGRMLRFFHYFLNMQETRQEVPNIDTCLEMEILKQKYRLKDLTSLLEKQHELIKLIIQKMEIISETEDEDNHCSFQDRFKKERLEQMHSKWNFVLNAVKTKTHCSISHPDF
# Some results were stated once for a whole list of compounds, not compound by compound. Some ranges recur; such a range may be that of the whole group of compounds.
# Molecular target: T1, TRPA1 (Mus musculus, UniProt Q8BLA8)
# T1 construct: expressed in transfected cells; host or cells: HEK293
# Assay: IonWorks Barracuda (IWB) automated patch clamp detection of TRPA1 inhibitory activity
# Format: cell-based, mouse (mTRPA1)
# Details: for ratio of the IC50 of S configuration of duloxetine to the IC50 of the compound: TRPA1, automated patch clamp; for ratio of IC50 of R configuration of compound to that of S configuration of compound: TRPA1
# Protocol: The inhibitory activity of some compounds in the Examples of present invention on transient receptor potential channel protein TRPA1 was tested in this example. The compound of formula A (WO2010075353) was used as a positive control compound: […]
# IonWorks Barracuda (IWB) automated patch clamp detection was used as test method: HEK293 cells stably expressing TRPA1 were placed in DMEM medium containing 15 μg/mL Blasticidin S HCl, 200 μg/mL Hygromycin B and 10% FBS in the T175 culture flask, and cultured in 37° C., 5% CO2 incubator. When the cell density reached about 80%, the culture medium was removed, rinsed with phosphate buffered saline (PBS) without calcium and magnesium. 3 mL of Trypsin was added to digest for 2 min, 7 mL of culture medium was added to terminate the digestion. The cells were collected to 15 mL centrifuge tube and centrifuged at 800 rpm for 3 min. After the supernatant was removed, the cells were added to appropriate volume of extracellular fluid for re-suspending, and the cell density was controlled at 2-3×10^6/mL for IWB experiment. Extracellular fluid formulation (in mM): 140 NaCl, 5 KCl, 1 MgCl2, 10 HEPES, 0.5 EGTA, 10 Glucose (pH 7.4); intracellular fluid formulation (in mM): 140 CsCl, 10 HEPES, 5 EGTA, 0.1 CaCl2, 1 MgCl2 (pH 7.2). 28 mg/mL of amphotericin B was freshly prepared with DMSO on the day of experiment, and then final concentration of 0.1 mg/mL was prepared with intracellular fluid.
# Population patch clamp (PPC) plate was used in IWB experiment. The entire detection process was automatically carried out by the instrument. Extracellular fluid was added into 384 wells of PPC plate, and 6 µL of the intracellular fluid was added into plenum (under the PPC plate), 6 µL of cell fluid was added for sealing test, and finally the intracellular fluid in plenum was replaced with amphotericin B-containing intracellular fluid to establish a whole-cell recording mode after perforating sealed cells. The sampling frequency for recording TPRA1 current was 10 kHz, the cells were clamped at 0 mV, the voltage stimulation command (channel protocol) was a ramp voltage from −100 mV to +100 mV for 300 ms. This voltage stimulation was applied every 10 s, mTRPA1 current was induced by 300 µM AITC.
# Data recording and current amplitude measurement export were carried out by IWB software (version 2.5.3, Molecular Devices Corporation, Union City, Calif.). No statistics was recorded for holes with sealing impedance lower than 20 MΩ. The original current data was corrected by software for leakage reduction. TRPA1 current amplitude was measured at +100 mV. […] If IC50 value of HC030031 exceeded 3 times the average IC50 value previously obtained on each plate, it would be re-tested. The dose-effect curve of compounds and IC50 were fitted and calculated by GraphPad Prism 5.02 (GraphPad Software, San Diego, Calif.).
Structure (SMILES),ratio of the IC50 of S configuration of duloxetine to the IC50 of the compound,ratio of IC50 of R configuration of compound to that of S configuration of compound
"CNCC[C@H](Oc1cccc2ccoc12)c1cccs1 [Compound IC-1, (S)-3-(benzofuran-7-yloxy)-N-methyl-3-(thiophen-2-yl)propyl-1-amine]",2.8-6.8,
"CNCC[C@H](Oc1cccc2ccoc12)c1ccoc1 [Compound IC-3, (S)-3-(benzofuran-7-yloxy)-N-methyl-3-(furan-3-yl)propyl-1-amine]",2.8-6.8,
"CNCC[C@H](Oc1cccc2c1CCC2)c1cccs1 [Compound IC-10, (S)-3-(2,3-dihydro-1H-inden-4-yloxy)-N-methyl-3-(2-thienyl)propyl-1-amine]",2.8-6.8,≥ 2
"NCC[C@H](Oc1cccc2ccoc12)c1cccs1 [Compound IC-23, (S)-3-(benzofuran-7-yloxy)-3-(thiophen-2-yl) propyl-1-amine]",2.8-6.8,≥ 2
